# Laboratory results taken from PubChem BioAssay AID1671190 (National Center for Advancing Translational Sciences (NCATS), 2021).
# The chains behind the UniProt entries cited, without tags or fusion partners. Where a name states a change or a piece, a line headed by the entry shows the natural chain unless it says otherwise.
# UniProt P18054: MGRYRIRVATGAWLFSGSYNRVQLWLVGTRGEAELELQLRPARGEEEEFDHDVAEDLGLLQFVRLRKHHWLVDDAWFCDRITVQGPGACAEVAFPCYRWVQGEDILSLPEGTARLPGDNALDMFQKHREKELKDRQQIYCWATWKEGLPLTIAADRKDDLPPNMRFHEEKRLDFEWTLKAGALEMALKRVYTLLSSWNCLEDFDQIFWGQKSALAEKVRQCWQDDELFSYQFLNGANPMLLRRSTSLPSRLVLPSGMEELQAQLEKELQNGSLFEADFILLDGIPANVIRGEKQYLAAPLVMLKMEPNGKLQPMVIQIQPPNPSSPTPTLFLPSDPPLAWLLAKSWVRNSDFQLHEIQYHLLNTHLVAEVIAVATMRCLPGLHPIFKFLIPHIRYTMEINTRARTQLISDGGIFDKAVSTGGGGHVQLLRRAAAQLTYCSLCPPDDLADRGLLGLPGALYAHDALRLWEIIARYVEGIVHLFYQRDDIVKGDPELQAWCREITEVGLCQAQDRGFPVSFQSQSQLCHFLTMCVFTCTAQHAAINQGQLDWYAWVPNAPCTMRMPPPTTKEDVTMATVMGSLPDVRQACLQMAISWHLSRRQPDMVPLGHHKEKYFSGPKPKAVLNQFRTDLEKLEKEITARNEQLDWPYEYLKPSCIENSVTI
# About 6,100 (1.1%) of roughly 580,000 compounds were called active. The inconclusive results got no clear call from the source; some entries with a clear call stand among them for comparison. The call rests on the fitted dose curve; in most records, active means well fitted inhibition curve with a large enough effect; inconclusive means small, poorly fitted or top-dose-only effect, or another doubt; inactive means no such curve, though single readings can be large or run the other way. A potency beside an inconclusive call is a rough fit, not a confirmed value.
# Molecular target: Polyunsaturated fatty acid lipoxygenase ALOX12 (Homo sapiens) (UniProt P18054)
# Test: Primary qHTS assay for inhibitors of human arachidonate 12S-lipoxygenase (ALOX12): Round 2
# Conditions: purified 12hLO, xylenol orange hydroperoxide absorbance; activity change, negative = inhibition: at 108 µM (top of the series) unless noted
# How it was run: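 Hydroperoxide product was detected by ferrous iron/xylenol orange as the 573 to 405 nm absorbance ratio. Arachidonic acid at 40 uM (final) was turned over for 30 min at room temperature by 150 nM human 12hLO, pH 7.0 Hepes buffer, after 15 min compound preincubation.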
# On the % scale 0 is the no-effect control and ±100 the full control effect; potency means the concentration at half of the fitted maximal effect.
Compound,Potency,"activity change, negative = inhibition"
CN1C(=O)C(c2ccccc2)CC12CCN(Cc1ccc(F)cc1F)CC2 (stereo not given),"inconclusive: 39.8 µM [inhibitor, partial curve]",
Cc1ccc(S(=O)(=O)Cn2nnnc2C(c2ccc(F)cc2)N2CCC(C(N)=O)CC2)cc1 (stereo not given),"inconclusive: 112 µM [inhibitor, single point]",
CC(C)c1noc(C2CCCN(C(=O)C3CCCC3)CCC(=O)NCC2)n1 (stereo not given),inactive,
C=CCNC(=S)Nc1ccc(Cl)c(Cl)c1,inactive,
COC(=O)c1c(NC(=O)C2CC2)sc(C(=O)Nc2ccccc2)c1C,"inconclusive: 112 µM [inhibitor, partial curve, poor fit]",
Oc1ccc(Br)cc1Cn1nnc2ccccc21,"inconclusive: 31.6 µM [inhibitor, partial curve, poor fit]",
COC(=O)c1c(COc2ccc(C)nc2[N+](=O)[O-])nc2ccccc2c1C,"inconclusive: 56.2 µM [inhibitor, single point]",
Cc1cccc(OCC2(CNS(=O)(=O)c3ccc(F)cc3)C[C@@H](O)[C@@H](O)C2)n1 (stereo not given in full),"inconclusive: 35.5 µM [inhibitor, single point]",
COc1c(Br)cc(Br)cc1C(=O)Nc1ccccc1N1CCCC1,"inconclusive: 35.5 µM [inhibitor, partial curve, poor fit]",
CCN(c1ccccc1)S(=O)(=O)c1ccc2c(c1)N(C(C)=O)CCO2,inactive,
CCn1c(C)cc(/C=C2\NC(=O)N(CC(=O)Nc3ccc(F)cc3)C2=O)c1C,"inconclusive: 35.5 µM [inhibitor, partial curve, poor fit]",
COC(=O)[C@H]1C[C@H](OC(=O)NC2CCCC2)[C@@]2(O)CN(S(=O)(=O)c3ccc(C)cc3)CC2[C@H]1C(=O)OC (stereo not given in full),inactive,
O=C(NCC(c1ccc(Cl)cc1)N1CCCCC1)c1ccc(F)cc1 (stereo not given),"inconclusive: 100 µM [inhibitor, partial curve, poor fit]",
O=C(Nc1ccc(Cl)nc1)c1cccn2nccc12,inactive,
CCc1c(O)nc(SCC(=O)Nc2nc3ccccc3s2)n(C2CCCCC2)c1=O,"inconclusive: 44.7 µM [inhibitor, partial curve, poor fit]",
Cc1ccc2[nH]cc(CCNC(=O)/C=C/c3ccco3)c2c1,"inconclusive: 100 µM [inhibitor, single point]",
O=C(CCc1ccc(-c2ccc(Cl)cc2)[nH]1)N1CC[C@H](CO)[C@H](O)C1,"inconclusive: 20 µM [inhibitor, full curve, poor fit]",
c1cc2c(cc1Nc1nc(-c3ccc4c(c3)OCO4)cs1)OCCO2,"inconclusive: 31.6 µM [inhibitor, single point]",
CCS(=O)(=O)N1Cc2ccccc2CC1C(=O)Nc1ccc(C)cc1 (stereo not given),"inconclusive: 50.1 µM [inhibitor, partial curve, poor fit]",
COCC(C)NS(=O)(=O)c1ccc(C)cc1C (stereo not given),inactive,
CCOC(=O)c1cc(C#N)c(Oc2ccccc2)nc1-c1ccccc1,inactive,
Cc1ccc(-n2c(SCc3ccccc3F)nc3[nH]ncc3c2=O)cc1C,"inconclusive: 44.7 µM [inhibitor, partial curve, poor fit]",

# Part of the list above, tab-delimited:
Compound	Potency	activity change, negative = inhibition
CC(C)c1noc(C2CCCN(C(=O)C3CCCC3)CCC(=O)NCC2)n1 (stereo not given)	inactive	
CCn1c(C)cc(/C=C2\NC(=O)N(CC(=O)Nc3ccc(F)cc3)C2=O)c1C	inconclusive: 35.5 µM [inhibitor, partial curve, poor fit]	

# The list goes on.

Compound,Potency,"activity change, negative = inhibition"
O=C(CSc1ccc2nc(-c3ccccc3)cn2n1)Nc1ccccc1C(F)(F)F,inactive,
O=C1C2C(C(=O)N1c1ccncc1)C1C=CC2C12CC2 (stereo not given),inactive,
Cc1ccccc1NC(=S)N(CCCN1CCCCC1)Cc1ccco1,inactive,
O=C(OCC(=O)N1N=C(c2ccc(Cl)cc2)CC1c1ccco1)c1cccnc1 (stereo not given),inactive,
NS(=O)(=O)c1ccc(NS(=O)(=O)c2ccc(NC(=S)Nc3ccccc3)cc2)cc1,inactive,
COc1ccc(-c2ccc(CN3C(C(C)C)C(=O)N(Cc4cn(CCC5OCCO5)nn4)CCS3(=O)=O)cc2)cc1OC (stereo not given),"inconclusive: 50.1 µM [inhibitor, partial curve, poor fit]",
O=C(NCCc1ccc2c(c1)OCCO2)c1cc(S(=O)(=O)N2CCCC2)ccc1Cl,inactive,
CCN(CC(=O)Nc1ccc2c(c1)OCCO2)C(=O)/C=C/c1ccc(F)cc1,"inconclusive: 35.5 µM [inhibitor, single point]",
CN(Cc1ccsc1)C(=O)c1cccc(C(=O)N(C)Cc2ccsc2)n1,"inconclusive: 0.282 µM [inhibitor, full curve, poor fit]",
CN(Cc1nc(-c2ccccc2)no1)C(=O)c1ccc2c(c1)OCO2,"inconclusive: 126 µM [inhibitor, single point]",
COc1ccc(-c2cc(=O)n3[nH]c(C)c(-c4ccc(OC)cc4)c3n2)cc1,"inconclusive: 31.6 µM [inhibitor, partial curve]",
O=C(Nc1cccc(-c2nc3ncccc3o2)c1)c1ccc(-c2cccc(Cl)c2Cl)o1,,inconclusive: -43.8% [inhibitor]
Cc1ccc(S(=O)(=O)N2C[C@H]3C(=O)C[C@@H](c4ccc(Cl)cc4)N(S(=O)(=O)c4ccccc4C)[C@H]3C[C@H]2c2ccccc2)cc1,"inconclusive: 112 µM [inhibitor, single point]",
Cc1ccccc1N1CCN(CCC(=O)Nc2ccc(F)cc2)CC1,active: 17.8 µM,
CCOc1ccc(S(=O)(=O)N(C)c2ccc(OCC(=O)NCC3CCCCC3)cc2)cc1,inactive,
CCOC(=O)c1cc(NC(=O)c2ccc(Cl)cc2)c(=O)oc1-c1ccccc1,"inconclusive: 112 µM [inhibitor, partial curve, poor fit]",
CC(=O)C(C)(CCC(=O)O)CCC(=O)O,inactive,
Cc1noc(C)c1CSc1nc2ccccc2n1CCc1ccccc1,"inconclusive: 79.4 µM [inhibitor, partial curve, poor fit]",
CC1(C(=O)NS(=O)(=O)c2ccc(C#N)cc2)CCN1C(=O)CC1CCCC1 (stereo not given),"inconclusive: 44.7 µM [inhibitor, partial curve, poor fit]",
Cc1cccc(C)c1OCCCCN1CCNCC1,"inconclusive: 0.794 µM [inhibitor, full curve, poor fit]",
Cc1nn(-c2ccccc2)c2c1C1(C(=O)N(C)c3ccccc31)C(C#N)=C(N)O2 (stereo not given),"inconclusive: 6.31 µM [inhibitor, full curve, poor fit]",
Cc1cccc(C(=O)N2CCC(C(NC(=O)c3ccccc3)C(=O)N3CCCCC3)CC2)c1 (stereo not given),"inconclusive: 1.41 µM [inhibitor, full curve, poor fit]",

Compound,Potency,"activity change, negative = inhibition"
NS(=O)(=O)c1ccc(NC(=S)NCc2ccc3c(c2)OCO3)cc1,"inconclusive: 70.8 µM [inhibitor, partial curve, poor fit]",
Cc1ccc(F)cc1-n1nc(-c2c(C)nc3scc(CC(=O)N4CCCC4)n3c2=O)cc1C,"inconclusive: 39.8 µM [inhibitor, partial curve, poor fit]",
O=C(/C=C/c1ccco1)Nc1ccc(CN2CCOCC2)cc1,inactive,
Cn1c2c(c3cc([N+](=O)[O-])ccc31)CCCC2,"inconclusive: 0.708 µM [inhibitor, full curve, poor fit]",
O=S1(=O)[C@H]2CC3O[C@]2(C[C@@H]3c2ccc(F)cc2)CN1Cc1ccc(Cl)cc1,"inconclusive: 25.1 µM [inhibitor, full curve]",
Cc1cc(=O)[nH]c(/N=C(\N)Nc2ccc(SC(F)F)cc2)n1,"inconclusive: 12.6 µM [inhibitor, partial curve, poor fit]",
O=C(NC(NNc1ccc([N+](=O)[O-])cc1)(C(F)(F)F)C(F)(F)F)c1ccccc1Cl,"inconclusive: 100 µM [inhibitor, partial curve, poor fit]",
O=C(Nc1ccccc1C(=O)NCCc1ccccc1)c1ccco1,inactive,
NC(=NCCc1c[nH]c2ccccc12)NC(=O)c1ccc(Cl)cc1,active: 39.8 µM,
CCN(CC)S(=O)(=O)c1ccc2c(c1)N(CC(=O)N1CCN(c3cc(Cl)ccc3C)CC1)C(=O)CO2,inactive,
CCc1ccc(N2CN(Cc3ccco3)CNC2=S)cc1,"inconclusive: 112 µM [inhibitor, partial curve, poor fit]",
O=C1c2ccccc2C(c2nnnn2Cc2ccccc2)N1CCc1ccc(O)cc1 (stereo not given),"inconclusive: 79.4 µM [inhibitor, single point]",
Oc1cccc2c(NC(=S)Nc3ccc(SC(F)F)cc3)cccc12,"inconclusive: 31.6 µM [inhibitor, partial curve]",
COc1ccc(/C=C2\SC(=S)N(CCC(=O)Nc3ccccc3C(=O)O)C2=O)cc1,inactive,
Cc1ccc(N(C(=O)c2snc(C(N)=O)c2N)C(C(=O)NCC2CCCO2)c2ccc3ncccc3c2)cc1 (stereo not given),"inconclusive: 112 µM [inhibitor, single point]",
Nc1[nH]c(C(=O)c2ccccc2)c(-c2ccccn2)c1C(=O)c1c[nH]c2ccc(F)cc12,"inconclusive: 56.2 µM [inhibitor, partial curve, poor fit]",
CCCCCn1c(=O)[nH]c2cc(C(=O)N3CCN(c4ccc(C(C)=O)cc4)CC3)ccc2c1=O,inactive,
CC(=O)N1CCc2cc(S(=O)(=O)CCC(=O)Nc3ccccc3F)ccc21,inactive,
CC(=O)Nc1nonc1-c1nnc(SCC(=O)Nc2ccccc2Cl)n1C,"inconclusive: 126 µM [inhibitor, single point]",
COc1ccc(C2CC(=O)c3cc(-c4nc(-c5ccc(Cl)cc5)cs4)c(=O)[nH]c3C2)cc1 (stereo not given),"inconclusive: 100 µM [inhibitor, partial curve, poor fit]",
CSc1nc2ccc(NS(=O)(=O)c3ccc([N+](=O)[O-])cc3)cc2s1,"inconclusive: 100 µM [inhibitor, partial curve, poor fit]",

# Compounds listed so far that contain an NH in an aromatic ring:
Compound,Potency,"activity change, negative = inhibition"
Cc1ccc2[nH]cc(CCNC(=O)/C=C/c3ccco3)c2c1,"inconclusive: 100 µM [inhibitor, single point]",
O=C(CCc1ccc(-c2ccc(Cl)cc2)[nH]1)N1CC[C@H](CO)[C@H](O)C1,"inconclusive: 20 µM [inhibitor, full curve, poor fit]",
Cc1ccc(-n2c(SCc3ccccc3F)nc3[nH]ncc3c2=O)cc1C,"inconclusive: 44.7 µM [inhibitor, partial curve, poor fit]",
COc1ccc(-c2cc(=O)n3[nH]c(C)c(-c4ccc(OC)cc4)c3n2)cc1,"inconclusive: 31.6 µM [inhibitor, partial curve]",
Cc1cc(=O)[nH]c(/N=C(\N)Nc2ccc(SC(F)F)cc2)n1,"inconclusive: 12.6 µM [inhibitor, partial curve, poor fit]",
NC(=NCCc1c[nH]c2ccccc12)NC(=O)c1ccc(Cl)cc1,active: 39.8 µM,
Nc1[nH]c(C(=O)c2ccccc2)c(-c2ccccn2)c1C(=O)c1c[nH]c2ccc(F)cc12,"inconclusive: 56.2 µM [inhibitor, partial curve, poor fit]",
CCCCCn1c(=O)[nH]c2cc(C(=O)N3CCN(c4ccc(C(C)=O)cc4)CC3)ccc2c1=O,inactive,
COc1ccc(C2CC(=O)c3cc(-c4nc(-c5ccc(Cl)cc5)cs4)c(=O)[nH]c3C2)cc1 (stereo not given),"inconclusive: 100 µM [inhibitor, partial curve, poor fit]",
